Where a protein sequence is shown, tags need not be part of it.
System: T1, RcoLS20-His(6) (Bacillus subtilis plasmid pLS20cat)
T1 sequence (looked up): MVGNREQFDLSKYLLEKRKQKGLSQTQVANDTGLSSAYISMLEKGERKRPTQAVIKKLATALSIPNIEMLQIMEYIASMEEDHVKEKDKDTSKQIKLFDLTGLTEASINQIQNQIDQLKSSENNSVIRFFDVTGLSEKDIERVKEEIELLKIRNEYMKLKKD
Assay: DNase I footprinting
Conditions: recombinant protein; residues 1-162; protein details: C-terminal His6; probe letters rebuilt from the primers and the genome

Does “GATCCTATACCACCTCGCAAAATAAACCCTGTATACGGTCTAGCGCTTACAATTTTTCGCGTTTTTTTTACTCAGTGAAAAAAACCGGTTAAAAATTTCACTGAAATACTTTACAGTTAAAAAAATGTCTGTTATCTTAGTGAAAGAGTCAGTGAAAAAAATGCAGAATAAGGTTTTTTGTTGTTAATCTCAAACAATTTCTGTGTAAAAAGAACTAGAATTCAACTTTTGTTTTAACCAACGTATTCACTGTTGTCTCTGAAGTTTTAACTACCAGTTAATTTAACCGTATGTATGTGTATTAATCATACACTATCAAAGTGTGCTATCACAATGTAGTCAGTTAATAATAAGTTTAGTAAAAACAGGATAAGGGCCAAGCTTAATA (double strand) [Pc/Pr footprint fragment]” bind?
Result: binds

From publication PMC4207663
